Reference: the supplement of paper PMC3334620
Over roughly 33,000 sequences, “E-score (-0.5 to 0.5)” has its median near -8e-05; the highest 2% begin near 0.23. This is one part of the list.

target: T1, Nrg2 (UniProt P38082); test: PBM E-score (8-mer binding enrichment) (E-score (-0.5 to 0.5)); higher = stronger / more preferred TF binding; conditions: protein concentration: 100 nM; construct: GST-full length
T1 sequence: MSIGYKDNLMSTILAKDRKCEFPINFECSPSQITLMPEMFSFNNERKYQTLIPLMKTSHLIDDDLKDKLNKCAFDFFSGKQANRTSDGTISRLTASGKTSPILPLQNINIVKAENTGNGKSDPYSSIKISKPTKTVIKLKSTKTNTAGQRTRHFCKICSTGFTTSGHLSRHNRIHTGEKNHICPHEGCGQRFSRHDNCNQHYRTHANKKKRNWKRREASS
In short: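 Universal all-10-mer Agilent arrays, fresh or stripped once, were converted to double-stranded form by primer extension. GST-tagged yeast transcription factors from PURExpress in vitro transcription/translation, full-length or DNA-binding domain only, were applied at about 100-200 nM and detected with fluorescent anti-GST. After masliner normalisation, the Universal PBM Analysis Suite scored each ungapped eight-base word together with its reverse complement by E-score.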

Row | Sequence | PBM E-score
1 | CCTGAATC | 0.0585
2 | AGGTACCT | -0.158
3 | GAATGATC | -0.0614
4 | CGTTCGTA | 0.138
5 | ACGTACCG | -0.106
6 | CGTAAGAG | -0.0741
7 | ACCATACA | -0.0448
8 | GCTAAGAA | -0.103
9 | AACCTACG | -0.0173
10 | CAATATGG | 0.055
11 | CTCGACAA | 0.00365
12 | GTTTTGGA | -0.14
13 | ACCCGTGG | -0.111
14 | ATCGATAA | -0.0134
15 | ATAGATGA | -0.0204
16 | ATCCTTAC | -0.0956
17 | CAGAGCCA | -0.207
18 | AGGCTTTA | -0.254
19 | CGGGCAAA | -0.00802
20 | ACACGGAA | 0.0623
21 | CAGAACAC | -0.00155
22 | GCGCTAGA | 0.0437
23 | TAACTCTA | -0.0441
24 | TCGCTAGA | -0.0372
25 | AAGGTTCA | 8e-05

Row | Sequence | PBM E-score
26 | TGGCTTAA | 0.0347
27 | AGCACAGC | 0.0974
28 | AAGAGTAT | -0.132
29 | AGGCCGAC | -0.0721
30 | TTGGCCAA | 0.0568
31 | CAAATCCC | 0.00106
32 | CATATCCA | -0.0584
33 | AACAGGCT | -0.0785
34 | CACAAGAC | -0.244
35 | CTGTCCGA | 0.0142
36 | ATGGATCA | 0.0779
37 | CCTGTGGC | -0.00031
38 | AAGCCTGG | -0.195
39 | AGTTTTAA | 0.172
40 | AGGCTACG | -0.301
41 | GCGCGAAA | 0.145
42 | ACCGAACG | 0.0212
43 | GCTCGGAA | -0.0374
44 | CCTAAACG | -0.165
45 | GCTCCCTA | -0.241
46 | GTAAAAAC | 0.111
47 | AGCTGTGG | 0.00631
48 | CGCTGTTC | -0.232
49 | CTGTTTGA | 0.0249
50 | GACTTCGC | 0.167

Row | Sequence | PBM E-score
51 | AGTCCCTG | 0.294
52 | CCCTAGAC | 0.00889
53 | AATGTAGG | -0.224
54 | CTAATCCA | -0.00436
55 | CAGAACCG | 0.093
56 | GAACTATC | 0.0513
57 | TAGCCCAA | 0.0612
58 | GTGCACAC | -0.173
59 | CAACAAAC | 0.0713
60 | ACACTCTG | -0.0131
61 | ATAGCGCG | 0.119
62 | CCGCCACC | -0.131
63 | ACTCTGCG | 0.132
64 | GCTTCTCC | -0.2
65 | TTCGCCAA | -0.18
66 | CTGGTACC | -0.119
67 | ATGCGGAC | -0.169
68 | CGTCAATA | -0.0899
69 | CATCGGCG | -0.0373
70 | ACAGTGAC | 0.0392
71 | GGTACCAC | -0.151
72 | AGACTCGA | -0.139
73 | ATTTGGCG | -0.162
74 | ATAGTACC | 0.0238
75 | CTCGGCTA | 0.0645

An excerpt of these results, as tab-separated lines:
Row	Sequence	PBM E-score
29	AGGCCGAC	-0.0721
73	ATTTGGCG	-0.162

(further entries)

Row | Sequence | PBM E-score
76 | CTCTGGAC | 0.0875
77 | GCATAAGA | 0.0418
78 | AATACCAC | 0.049
79 | ATTGCCAG | 0.112
80 | AAGTCAGC | 0.0916
81 | AGCACTGC | -0.0874
82 | AAATTTTG | -0.149
83 | AATTTCGG | -0.00627
84 | ACTGTCCT | 0.00021
85 | GTTCAGAA | 0.0161
86 | AATTACCG | -0.0326
87 | AACATTCG | -0.0394
88 | ACAGACCC | -0.00923
89 | TACCTGAA | 0.0117
90 | AACAAGAA | 0.091
91 | AGTGGATG | 0.0975
92 | AAAGCCCG | -0.147
93 | GTATTACA | 0.0254
94 | CTGCGCGC | 0.306
95 | AACTATCA | 0.0359
96 | CGGTGCCA | -0.279
97 | ACGGCCTA | 0.0182
98 | AAAGGTGG | -0.00761
99 | TCCGCGCA | 0.0506
100 | ACTCAGAT | 0.109

An excerpt of these results, field by field.
GCATAAGA
  PBM E-score: 0.0418
AATACCAC
  PBM E-score: 0.049

Following part.

Row | Sequence | PBM E-score
101 | ACGATTAA | -0.0411
102 | ACCTGAGC | 0.0385
103 | AGATGGCA | 0.0923
104 | TCTATTCA | 0.0842
105 | AGCGGTCA | -0.00422
106 | CATTCGGC | -0.0555
107 | GGCTGACA | -0.00063
108 | CGTACATA | 0.0267
109 | TACTTCTA | -0.0235
110 | AATACAGA | 0.0334
111 | ACGAGAGG | -0.0191
112 | AAGCCGAG | 0.111
113 | ACCCGACT | -0.00436
114 | GCGAATCC | -0.0352
115 | GACGCGAC | -0.121
116 | GTTTTGTA | 0.131
117 | CTCTTGAC | -0.101
118 | CTCCCTTC | -0.245
119 | AACGGGTC | 0.0316
120 | AGCAAGAT | 0.048
121 | AGCGCCCT | 0.036
122 | AAGAGGCC | -0.148
123 | GTTCGTGA | -0.203
124 | AGTACGTA | 0.0307
125 | CAAAGTGG | -0.105

Row | Sequence | PBM E-score
126 | GACCGACC | 0.0397
127 | GTGACCGA | -0.158
128 | GGTAGACC | -0.00427
129 | ACGAAGCG | -0.0952
130 | CTTGCGCC | -0.0573
131 | CAGGTCCA | 0.0188
132 | CCGACTAC | -0.15
133 | ATCGACGA | 0.0881
134 | CACCACTG | -0.0331
135 | CTAGTGAA | -0.0581
136 | ATCCCCAC | 0.247
137 | ACCCAAAC | 0.145
138 | ATGTCTTC | -0.23
139 | CCAGGGAC | 0.366
140 | GCTGATGA | 0.0708
141 | AGCTGCGA | 0.0776
142 | GCCATTCA | 0.155
143 | ATTAAGGA | 0.069
144 | ATTCTTTG | 0.00386
145 | CTCTAATC | -0.214
146 | CACGAGTC | -0.174
147 | GACCGGAC | -0.168
148 | CAGCGGAG | 0.0363
149 | ACCTTCGC | -0.0876
150 | CAACAGCA | 0.0942

Row | Sequence | PBM E-score
151 | AATCATAG | 0.235
152 | ATATTGAA | -0.00511
153 | CAAACGAG | 0.0526
154 | CTTACCCC | -0.225
155 | ACTTGTTG | -0.17
156 | CTCAGAAA | 0.101
157 | AAGAGACG | -0.0193
158 | AGTACGCA | -0.179
159 | CGGCTCTA | -0.0697
160 | CAGACTAA | -0.103
161 | AAGGAGTG | 0.0233
162 | ATGTACCG | 0.0159
163 | ACCAATAT | 0.213
164 | ACCTCGCA | 0.00775
165 | AACAGCAA | 0.135
166 | CGCCAAGC | -0.148
167 | ACACACGC | 0.0319
168 | AACCGTGA | -0.142
169 | GAGACCTC | -0.0945
170 | CACGGTGA | 0.0843
171 | CTCGGCGC | 0.0845
172 | ACGCAATG | -0.0734

Reformatted in CSV form: part of the list above
Row,Sequence,PBM E-score
161,AAGGAGTG,0.0233
163,ACCAATAT,0.213
164,ACCTCGCA,0.00775
167,ACACACGC,0.0319
168,AACCGTGA,-0.142
169,GAGACCTC,-0.0945
